Tested on: barley (Sukai Golden)
Assay: Amount of rooting, yield and length of acrospires (Test Example 3)
Type: in vivo
Conditions: roots-removed malts from 100 g of barley
Source text: Here, the rooting amount used herein means total weight of a root thrusting out of the surface of each grain in malts which are malted from 100 g of raw material barley.
Crops of Sukai Golden harvested in the year 2013 (99% of germination ratio) were used as domestic (Japan) two-row malting barley cultivar. and steeping conditions were the same as those in Test Example 1. A standard in which steeping of barley was earned out in pure water (pH 7.0) was defined as “normal steeping bailey (Comparative Example 2),” and a standard in which steeping of barley was earned out in an aqueous solution having a pH listed in Table 3 with phosphoric acid was defined as “acidic steeping barley (Example 2),” and three batches of malts each of which was obtained by going through the steps of steeping, germination and kilning were prepared. For each of batches of the normal malts and the acidic steeping barley obtained, the weight of rooting was obtained, and an average length of acrospires and an yield were obtained in the same manner as Test Example 1 to calculate an average thereof. In addition, each of the contents of an acrid component and β-glucan was measured as follows, and the contents of enzymes were measured in the same manner as Test Example 2. […] In addition, the germination was carried out for 5 days while keeping a temperature at 20° C. In addition, an yield was calculated as X/100 (%) from X g of a weight of roots-removed malts obtained from 100 g of barley.

Work on O=P(O)(O)O [Phosphoric Acid, phosphoric acid] yielded a Yield (Initial pH 1.5, 223 mM) of 91.8%, a Yield (Initial pH 1.6, 176 mM) of 91.8% and a Yield (Initial pH 1.8, 82 mM) of 91.2%. The Yield (Initial pH 2.0, 29 mM) was 90.6%, the Yield (Initial pH 2.2, 18 mM) was 89.0% and the Yield (Initial pH 2.4, 7 mM) was 87.5%.
